# Source: PubChem BioAssay AID2551 (National Center for Advancing Translational Sciences (NCATS), 2010)
# Chains of the proteins cited; added tags and fusions are not shown. Lines headed by an entry give the natural chain unless they say otherwise; changes in a name come on top.
# UniProt P51450: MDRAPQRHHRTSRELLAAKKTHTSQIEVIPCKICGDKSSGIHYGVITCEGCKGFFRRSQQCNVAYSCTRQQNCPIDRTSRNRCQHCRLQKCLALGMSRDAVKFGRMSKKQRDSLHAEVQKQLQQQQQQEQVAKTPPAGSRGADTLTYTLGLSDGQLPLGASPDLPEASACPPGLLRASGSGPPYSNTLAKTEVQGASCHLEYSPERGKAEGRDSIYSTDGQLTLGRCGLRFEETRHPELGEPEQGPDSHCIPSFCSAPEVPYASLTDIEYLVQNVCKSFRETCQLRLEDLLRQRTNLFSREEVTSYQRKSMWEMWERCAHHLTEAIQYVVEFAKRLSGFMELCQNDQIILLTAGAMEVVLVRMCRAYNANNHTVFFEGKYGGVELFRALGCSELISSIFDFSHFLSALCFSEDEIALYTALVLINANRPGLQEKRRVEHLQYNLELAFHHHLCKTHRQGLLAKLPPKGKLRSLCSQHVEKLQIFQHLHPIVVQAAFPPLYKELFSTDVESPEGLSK
# In all, about 310,000 compounds went through this assay and about 17,000 (5.5%) were called active. This list was built around the results that the source calls inconclusive (neither active nor inactive); the mix of calls is not that of the screen. Calls follow the shape of the dose curve; as a rule, active = well fitted inhibition curve with a large enough effect; inconclusive = small, poorly fitted or top-dose-only effect, or effect the other way; inactive = no such curve, though single readings can be large or run the other way. A potency beside an inconclusive call is a rough fit, not a confirmed value.
# Biological target: Nuclear receptor ROR-gamma (Mus musculus) (UniProt P51450)
# Assay: qHTS for inhibitors of ROR gamma transcriptional activity; also: nearly all actives have a fitted effect of over 60% in size
# Conditions: Drosophila S2 Gal4-RORgamma UAS-luciferase reporter, 20 h; activity change, negative = inhibition: at 53.6 µM (top of the series)
# Outline: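 Stable Schneider cell line, Gal4 DNA-binding domain fused to ROR gamma, UAS-luciferase. Cmpd 1 hr RT → CuSO4 700 uM final → 20 hr RT → luciferase reagent 10 min → luminescence.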
# % is scaled to controls: 0 for no effect and ±100 for the full control effect; potency is read from the fitted curve at half-maximal effect.
Structure (SMILES),Potency,"activity change, negative = inhibition"
CCCOc1ccc(CC(=O)N/N=C\c2ccc(F)cc2)cc1,"inconclusive: 15.8 µM [activator, partial curve]",–
CCN(CC)c1ccc(NC(=O)c2ccc(Cl)nc2)cc1,"inconclusive: 12.6 µM [activator, partial curve]",–
FC(F)(F)c1cc(NC2CCCCC2)ccn1,"inconclusive: 2.82 µM [activator, single point]",–
Fc1ccccc1-c1n[nH]c(=S)n1C1CC1,active: 10 µM,–
Cc1ccc(C(=O)O/N=C(\N)c2ccccn2)c(Cl)c1,active: 0.708 µM,–
COCCn1c(SCC(=O)N2CCC(C)CC2)nc2c([nH]c3ccccc32)c1=O,"inconclusive: 10 µM [inhibitor, partial curve]",–
COc1ccccc1Oc1ccc(N/C=C/C(=O)c2ccco2)cc1,"inconclusive: 28.2 µM [activator, single point]",–
Cc1c(Cl)cccc1NC(=S)N1CCN(Cc2ccccc2)CC1,active: 10 µM,–
CCc1cccc(N(CC(=O)NCc2ccc(F)cc2)C(=O)c2csnn2)c1,"inconclusive: 15.8 µM [activator, single point]",–
Cc1ccc(C(=O)NC(=S)NCc2cccnc2)c(C)c1,"inconclusive: 22.4 µM [inhibitor, single point]",–
CC(NC(=O)/C(=C/c1cccc([N+](=O)[O-])c1)NC(=O)c1ccco1)C(=O)O (stereo unspecified),–,inactive: -10.2%
CC(C)Cn1c(CCCNC(=O)c2ccc(F)cc2)nc2ccccc21,–,inactive: -11.4%
NNC(=O)c1cccc(COc2ccccc2Br)c1,"inconclusive: 14.1 µM [inhibitor, single point]",–
S=C(NCCc1ccccc1)NCC(c1ccco1)N1CCCCC1 (stereo unspecified),active: 10 µM,–
Fc1cccc(F)c1/C=C/c1ccc2ccccc2n1,"inconclusive: 20 µM [inhibitor, single point]",–
COc1ccc(OCC(=O)O/N=C(\N)Cc2cccs2)cc1,"inconclusive: 11.2 µM [activator, partial curve]",–
Cc1nn(Cc2ccc(Cl)cc2)c(Cl)c1/C=N/NC(=O)c1cccnc1,"inconclusive: 7.08 µM [activator, partial curve]",–
COc1cccc(NC2=Nc3cccc4cccc2c34)c1,"inconclusive: 17.8 µM [inhibitor, single point]",–
O=C(Nc1ccc2ccccc2c1)c1ccc2[nH]c(=O)c(=O)[nH]c2c1,–,inactive: -7.22%
CN(Cc1ccco1)c1ncnc2ccc(-c3ccoc3)cc12,"inconclusive: 35.5 µM [inhibitor, single point]",–
O=c1c2c3c(sc2nc(NCCO)n1Cc1ccco1)CCCCC3,"inconclusive: 17.8 µM [activator, partial curve, poor fit]",–

# Single records, as listed above:
# Cc1c(Cl)cccc1NC(=S)N1CCN(Cc2ccccc2)CC1 as listed: Potency: active: 10 µM
# O=c1c2c3c(sc2nc(NCCO)n1Cc1ccco1)CCCCC3 as listed: Potency: inconclusive: 17.8 µM [activator, partial curve, poor fit]
